Experimental data published in publication PMC7819943, “Rice protein-binding microarrays: a tool to detect cis-acting elements near promoter regions in rice”.
The other results are listed elsewhere or left out.

Each sequence was assayed against T1, OsSMF1 (Oryza sativa, UniProt Q6ZLB0 1-436) (assay: protein-binding microarray (RPBM); PBS, 2% BSA, 51.3 ng/ul salmon testes DNA, 50 uM zinc acetate, 200 nM TF, 25 C, 1 h; high values mean tight binding). Details: protein: recombinant; tags: N-terminal polyhistidine and DsRed monomer fusion (pET32a); chain copies: 2; label: CyDye5-dUTP incorporated in the synthesized complementary strand; 3' TTTTT single-stranded linker to array surface; dsDNA, one strand shown.
T1 sequence: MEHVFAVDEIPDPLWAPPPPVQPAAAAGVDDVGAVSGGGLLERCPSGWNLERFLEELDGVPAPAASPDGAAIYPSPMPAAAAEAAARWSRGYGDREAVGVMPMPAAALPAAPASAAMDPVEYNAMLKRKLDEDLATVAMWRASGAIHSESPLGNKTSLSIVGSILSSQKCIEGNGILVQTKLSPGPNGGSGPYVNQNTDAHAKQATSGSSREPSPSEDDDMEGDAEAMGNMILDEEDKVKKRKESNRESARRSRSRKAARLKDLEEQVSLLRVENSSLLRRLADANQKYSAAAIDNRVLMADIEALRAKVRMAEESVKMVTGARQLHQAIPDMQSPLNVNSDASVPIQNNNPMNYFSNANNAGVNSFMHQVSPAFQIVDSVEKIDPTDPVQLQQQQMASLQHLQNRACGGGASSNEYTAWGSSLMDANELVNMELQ
Method in brief: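 A custom Agilent array was converted to double-stranded form by primer extension with Cy5-dUTP and blocked with 2% BSA. Protein at 200 nM in PBS with 2% BSA, salmon testes DNA and 50 µM zinc acetate was applied for 1 h at 25 °C, followed by washing. The proteins were polyhistidine–DsRed N-terminal fusions of transcription factors, expressed in E. coli BL21-CodonPlus and Ni–NTA-purified. The binding signal is per-feature fluorescence intensity (arbitrary units) from an Axon 4000B scanner.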
With “TCAAACTAACCACGTCAGCGACACATCAGTTAAAACCGCACGGAGTCACCTAGTGCAG” the binding signal was 12400 fluorescence intensity (a.u.). In the case of “TAAGATGGAAGTGAATCACATATCTTAACTTCACATTTAGCGGAGTCACCTAGTGCAG”, the binding signal is reported as 3350 fluorescence intensity (a.u.). In the case of “GTCGCTGTCGTCCTCGTCATCATCGCCGCCATCGCTGGATCGGAGTCACCTAGTGCAG”, the binding signal is reported as 8830 fluorescence intensity (a.u.). In the case of “TGAAATTCATGAACGTGGCATGAATGAAGATTTTCTCATCCGGAGTCACCTAGTGCAG”, the binding signal is reported as 3140 fluorescence intensity (a.u.). With “ACGCTAGCCTTGCCGCCCTCGCGGAGGAATCCGCGCACAACGGAGTCACCTAGTGCAG” the binding signal was 3320 fluorescence intensity (a.u.). In the case of “GTGGATCTGGCTAGCCCATCACTGTGCTAGCAACCAACCTCGGAGTCACCTAGTGCAG”, the binding signal is reported as 4650 fluorescence intensity (a.u.). “ACTCCTACTCGACACGGAGTCGGCCTCGTCAGCCAGCTATCGGAGTCACCTAGTGCAG” was tested, and the binding signal was 4590 fluorescence intensity (a.u.). In the case of “GAGACGAGGCGACGGCGACGACAGCGACAGCGCCGTGGCACGGAGTCACCTAGTGCAG”, the binding signal is reported as 29900 fluorescence intensity (a.u.). With “ATATAGTATTGGTTGTGTATGTATGTAGTATCTCATTAGCCGGAGTCACCTAGTGCAG” the binding signal was 3390 fluorescence intensity (a.u.). With “TCTTCTATTATATTGACGTGTATTTCTTTTAGCGTGTTAGCGGAGTCACCTAGTGCAG” the binding signal was 10400 fluorescence intensity (a.u.). In the case of “CTAAGGCCATGAACAGTACTCGTACGTGGCGATTGTCTCCCGGAGTCACCTAGTGCAG”, the binding signal is reported as 3620 fluorescence intensity (a.u.). With “AAATCCAAAATGCTTTAGGAGATGACTCATCTTAAAACAACGGAGTCACCTAGTGCAG” the binding signal was 5430 fluorescence intensity (a.u.). In the case of “TCAAAGATTTGACAATGCCACTTGTGCGAGGAGCCGATTCCGGAGTCACCTAGTGCAG”, the binding signal is reported as 3170 fluorescence intensity (a.u.). “TATATATATATATATATATAAAGTGTATGACATGTGATCACGGAGTCACCTAGTGCAG” was tested, and the binding signal was 3970 fluorescence intensity (a.u.). For “AGTTGGGCTTGTCCTGATGAGCTGCATTGGCGTGGTTTGGCGGAGTCACCTAGTGCAG”, the binding signal was 3370 fluorescence intensity (a.u.). With “TAGATACGGCGGATGTGATTAGTATTCGAGATGACGCACGCGGAGTCACCTAGTGCAG” the binding signal was 3700 fluorescence intensity (a.u.). For “GCTCAGCATCATCAGCTGCCACCACAGCTAGCTAGCCATACGGAGTCACCTAGTGCAG”, the binding signal was 4150 fluorescence intensity (a.u.). “CCCCGTACACGTAGGACTTGTTTACTTTGCTACTATTTTCCGGAGTCACCTAGTGCAG” was tested, and the binding signal was 7140 fluorescence intensity (a.u.). In the case of “CATGTCGACATGTTCACAAGCGGTACCAAGAGTCAAGACACGGAGTCACCTAGTGCAG”, the binding signal is reported as 45800 fluorescence intensity (a.u.). “ATGAAGAAATTAAACTTTTCAAGCGTGACAGGTGTCATCCCGGAGTCACCTAGTGCAG” was tested, and the binding signal was 5950 fluorescence intensity (a.u.). In the case of “GTTTGTTATTGTCCATTTTAAATGTCGACTACATCAGCCCCGGAGTCACCTAGTGCAG”, the binding signal is reported as 3540 fluorescence intensity (a.u.). With “TGCAACTTGGGAAGACTATGACGTACTCCCTATTTGTCAACGGAGTCACCTAGTGCAG” the binding signal was 6230 fluorescence intensity (a.u.). “GGGTTTGTGTTACATTATCGAGATCACCGATGATGGATGTCGGAGTCACCTAGTGCAG” was tested, and the binding signal was 3610 fluorescence intensity (a.u.). For “TCCGTTGGATAAATGGATGCTCTCATCTAAGTCACCCAGGCGGAGTCACCTAGTGCAG”, the binding signal was 16100 fluorescence intensity (a.u.). In the case of “CGTCCGTAGATGCCAGCGGGGCGGCCCGCCGGATGTGGAGCGGAGTCACCTAGTGCAG”, the binding signal is reported as 4200 fluorescence intensity (a.u.). For “GTTAGAAGTTTAGAACTCTCATCCTCTATAGCCGTGTTTACGGAGTCACCTAGTGCAG”, the binding signal was 3570 fluorescence intensity (a.u.). With “GACAATAGGAAAACGATCATCAATCATGACTATCACTGTTCGGAGTCACCTAGTGCAG” the binding signal was 3960 fluorescence intensity (a.u.). For “CCGCCCTCCCCTTATCCCTTGTCGCCGCCGCCGCGTGGCCCGGAGTCACCTAGTGCAG”, the binding signal was 4430 fluorescence intensity (a.u.). In the case of “CTCGGAGTAAGTTCATCACCTTCCTGTAGACTATATTCATCGGAGTCACCTAGTGCAG”, the binding signal is reported as 3360 fluorescence intensity (a.u.). In the case of “ATGGCTGATTCTGAGTTTACAACAATTATTTAAATACATACGGAGTCACCTAGTGCAG”, the binding signal is reported as 3820 fluorescence intensity (a.u.). For “AGTATGTATGTTTATTTTAGCTGACGTGGCAATATAGTCACGGAGTCACCTAGTGCAG”, the binding signal was 22700 fluorescence intensity (a.u.). “CTAATGGGACTGCTGCTACCCTATCTTTAGTCCGGGACTACGGAGTCACCTAGTGCAG” was tested, and the binding signal was 3270 fluorescence intensity (a.u.). “CTGTTTAATTAGTGTCAGCTCCCACGTCTGTTCCGTGCTGCGGAGTCACCTAGTGCAG” was tested, and the binding signal was 5650 fluorescence intensity (a.u.). For “GGTTCGTCAACAAGGTCAGGGGCGGCGGCCGGGGCGGAGCCGGAGTCACCTAGTGCAG”, the binding signal was 3530 fluorescence intensity (a.u.). “CGTCGCCGACTGTTCATGTCAGCGCGGCTGACGCTGCTTGCGGAGTCACCTAGTGCAG” was tested, and the binding signal was 5160 fluorescence intensity (a.u.). With “TTATTTGGATTATTAAACTAGTTGTTTGTTACTAATAGTTCGGAGTCACCTAGTGCAG” the binding signal was 22800 fluorescence intensity (a.u.). “CAAACACGCAATATCAAAGTACACGAGGGGTCTACGTGGACGGAGTCACCTAGTGCAG” was tested, and the binding signal was 6950 fluorescence intensity (a.u.). For “GTGTTCCTCAAGGAGCGTTGTCACGCTACAACGTGATGGTCGGAGTCACCTAGTGCAG”, the binding signal was 3840 fluorescence intensity (a.u.). For “TCGTGGTGGTGGTGGTGGTGCAGCTTTTGCTTGCGTGCGACGGAGTCACCTAGTGCAG”, the binding signal was 4450 fluorescence intensity (a.u.). With “CACTCTATTCCGTTGTTGCATAAAAGTAAAGATTACGTAACGGAGTCACCTAGTGCAG” the binding signal was 3760 fluorescence intensity (a.u.). For “AGTTGGAGGGCACGGACTCCGGAGGCGTCACCCGCGGGAGCGGAGTCACCTAGTGCAG”, the binding signal was 3580 fluorescence intensity (a.u.). With “TTCTACGCTCTCACGTGGCCCATTGAATTCACCGTGTGGCCGGAGTCACCTAGTGCAG” the binding signal was 3440 fluorescence intensity (a.u.).
